The values that follow come from article PMC11172375, “Preclinical Evaluation of Biodistribution and Toxicity of [^211At]PSMA-5 in Mice and Primates for the Targeted Alpha Therapy against Prostate Cancer” (International Journal of Molecular Sciences, 2024).

A short description of this data set: Estimated absorbed doses in humans from SPECT images in monkeys. In kind it is in vivo.

Take `O=C(O)CC[C@H](NC(=O)N[C@@H](CCCCNC(=O)[C@@H](Cc1ccc2ccccc2c1)NC(=O)c1ccc(CNC(=O)[C@@H](CCC(=O)O)NC(=O)[C@@H](CCC(=O)O)NC(=O)Cc2ccc([211At])cc2)cc1)C(=O)O)C(=O)O` [[^211At]PSMA-5]: the “Estimated absorbed dose from monkey” value is, setting by setting: (human estimate from monkey SPECT 1, 3, 24 hrs, Salivary glands) 3.51 mGy/MBq; (human estimate from monkey SPECT, Heart) 0.93 mGy/MBq; (human estimate from monkey SPECT, Kidney) 1.41 mGy/MBq; (human estimate from monkey SPECT, Liver) 0.25 mGy/MBq.
